Measured values published in patent US20070065428A1, “Early B-cell detection for selecting vaccines” (Pepscan Systems B.V., priority 2004, published 2007).
At least one compound was matched to its structure with a doubt left.

System: Gastrin-specific B cells
Experiment: Inhibition of Gastrin-tetramer staining of specific B cells by pre-incubation with unlabeled Gastrin
Format: cell-based, mice
Conditions: splenocytes pre-incubated with unlabeled antigen; higher dose of 2 mM, 20 μM and 0.2 μM

CSCCC(NC(=O)C(Cc1c[nH]c2ccccc12)NC(=O)CNC(=O)C(Cc1ccc(O)cc1)NC(=O)C(C)NC(=O)C(CCC(=O)O)NC(=O)C(CCC(=O)O)NC(=O)C(CCC(=O)O)NC(=O)[C@H](CCC(=O)O)NC(=O)[C@H](CCC(=O)O)NC(=O)[C@H](CC(C)C)NC(=O)[C@H](Cc1c[nH]c2ccccc12)NC(=O)[C@@H]1CCCN1C(=O)CNC(=O)[C@@H](N)CCC(=O)O)C(=O)NC(CC(=O)O)C(=O)NC(Cc1ccccc1)C(N)=O (stereo in doubt) [Gastrin, pEGPWLEEEEEAYGWMDF]
inhibition of peptide-tetramer staining of specific B cells: nearly abolished
